Data taken from ChEMBL document CHEMBL3988442, “University of Dundee, Small-Polar-MMV Screening Library” (2021).

By UniProt entry, the sequences of proteins in these tests, tags left out. Residues count along the entry.
UniProt P9WPC5, whole entry: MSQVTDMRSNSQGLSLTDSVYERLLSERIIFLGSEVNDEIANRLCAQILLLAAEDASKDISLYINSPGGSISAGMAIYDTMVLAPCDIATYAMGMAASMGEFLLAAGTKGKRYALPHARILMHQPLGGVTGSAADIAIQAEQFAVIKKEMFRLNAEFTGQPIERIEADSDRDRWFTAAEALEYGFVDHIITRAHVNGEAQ
UniProt P9WPC3, whole entry partner: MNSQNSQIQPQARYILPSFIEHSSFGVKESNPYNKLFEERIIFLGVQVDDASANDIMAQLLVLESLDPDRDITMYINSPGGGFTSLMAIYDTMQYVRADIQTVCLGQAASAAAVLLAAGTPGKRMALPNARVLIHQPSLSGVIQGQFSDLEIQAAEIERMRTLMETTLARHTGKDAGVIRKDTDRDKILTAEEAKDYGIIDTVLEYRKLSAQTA
UniProt A4I591, 1-473: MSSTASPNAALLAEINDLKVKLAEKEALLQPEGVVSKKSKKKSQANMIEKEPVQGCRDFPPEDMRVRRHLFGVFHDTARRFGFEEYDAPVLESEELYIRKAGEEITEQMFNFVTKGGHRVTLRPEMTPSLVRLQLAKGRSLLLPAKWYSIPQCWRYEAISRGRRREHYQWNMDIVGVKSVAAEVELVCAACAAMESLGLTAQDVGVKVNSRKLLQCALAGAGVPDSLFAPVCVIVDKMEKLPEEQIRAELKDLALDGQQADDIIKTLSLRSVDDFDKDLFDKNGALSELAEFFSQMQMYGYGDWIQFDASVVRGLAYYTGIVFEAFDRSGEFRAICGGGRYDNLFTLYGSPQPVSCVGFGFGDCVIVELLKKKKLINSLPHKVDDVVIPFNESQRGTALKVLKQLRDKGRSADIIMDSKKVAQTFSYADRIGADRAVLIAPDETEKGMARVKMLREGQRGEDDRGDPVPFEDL

ClpP1P2: 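ClpP1P2, Mycobacterium tuberculosis (UniProt P9WPC5 and UniProt P9WPC3). Protease assay of ClpP1P2, read by the AMC dye that it sets free. Compounds at 50 µM. Direction is inferred from only a few compounds that gave an IC50; most scored high, so higher reads as stronger inhibition. Most other retested compounds had strongly negative values. Size under these conditions: about 69,000 compounds, about 10 of them at 50% or above in at least one test.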
LiHisRS: 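Enzyme assay of histidyl-tRNA synthetase; the read-out is not stated. Target: Histidine-tRNA ligase, Leishmania infantum (UniProt A4I591). Concentration: 30 µM. Direction is inferred from retests: higher values go with stronger inhibition. The assay is labelled LdHisRS but filed under L. infantum. Size under these conditions: about 69,000 compounds, about 410 of them at 50% or above in at least one test.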

Values are the deposited “Percent Effect”, in %. How 0% and 100% were set is not recorded. Most values in the screen are low, and negative values occur. This is an unselected part of the compounds tested.

* Cc1ccc(CN2CCC3(CCC(C(=O)N(C)C)O3)CC2)o1 (centres undefined) | ClpP1P2: 5.238%; LiHisRS: 7.692%
* Cc1csc2c(C3CCCN(C(=O)CCn4cncn4)C3)nc(C)n12 (centres undefined) | ClpP1P2: -21.37%; LiHisRS: 2.857%
* CCNc1ncc(C(=O)NCCNc2ccncc2C)cn1 | ClpP1P2: -28.27%; LiHisRS: 12.5%
* Cc1ncc(CNC(=O)NCC(C)Oc2ccccc2F)s1 (centres undefined) | ClpP1P2: -12.53%; LiHisRS: 19.47%
* CCc1nnc2n1CCN(C(=O)c1ccc(C(F)(F)F)nc1C)C2 | ClpP1P2: 5.194%; LiHisRS: 1.124%
* CC(C)c1cccc(-n2cc(O)c(C(=O)NCCC(=O)N(C)C)n2)c1 | ClpP1P2: -5.642%; LiHisRS: 22.22%
* CCN1C[C@H]2C3(CCN(C(=O)NC(C)C)CC3)CC[C@@]2(C(=O)N(C)C)C1 | ClpP1P2: -7.056%; LiHisRS: 4%
* Cc1nccnc1N1Cc2cnc(CC(C)C)nc2C1 | ClpP1P2: -35.11%; LiHisRS: 12.5%
* Cc1cc(C2CCCN(C(=O)c3ccc(C)[nH]c3=O)C2)n[nH]1 (centres undefined) | ClpP1P2: 0.7349%; LiHisRS: 0%
* Cc1cc(C)n(CC(C)NC(=O)c2cc(CN3CCC(O)CC3)on2)n1 (centres undefined) | ClpP1P2: 6.267%; LiHisRS: 4.225%
* CCC(NC(=O)Cn1ccc(=O)n(C)c1=O)c1ccc(OC)cc1 (centres undefined) | ClpP1P2: 4.878%; LiHisRS: 15%
* CS(=O)(=O)N1CCN(c2cnnc(N3CCCC3)c2)CC1 | ClpP1P2: -17.53%; LiHisRS: 7.792%
* COc1ccc(-n2cccn2)c(CN2CCC3(CCCN(C)C3=O)C2)c1 (centres undefined) | ClpP1P2: -6.477%; LiHisRS: 12.24%
* C1CCCN(C2CCCN(Cc3noc(C4CC4)n3)C2)CC1 (centres undefined) | ClpP1P2: -25.1%; LiHisRS: 16.67%
* CSCC(=O)N1CCc2c(cnc(C)c2-c2noc(-c3ccco3)n2)C1 | ClpP1P2: -10.2%; LiHisRS: 20.41%
* O=C(c1cnccn1)N1CCN2C[C@H](Oc3cccc(F)c3)C[C@H]2C1 | ClpP1P2: -10.99%; LiHisRS: 30.56%
* CC(NC(=O)c1cccc[n+]1[O-])c1ccc2c(c1)CCC(=O)N2 (centres undefined) | ClpP1P2: 0.3643%; LiHisRS: 14.29%
* Cc1cc(C[C@@H]2COC[C@@H]2NC(=O)CN2CCCN(C)CC2)on1 | ClpP1P2: 0.1226%; LiHisRS: 23.08%
* COCC(=O)N1CCC2(CCN(Cc3ccc(C)cc3)CC2)CC1 | ClpP1P2: -0.1392%; LiHisRS: 6%
* Cc1ccccc1CCCN(Cc1ccccn1)S(C)(=O)=O | ClpP1P2: -15.19%; LiHisRS: 8%
* N[C@H]1CN(C(=O)c2ccccc2Oc2ccccc2)C[C@@H]1C1CC1 | ClpP1P2: -29.17%; LiHisRS: 15.83%
* Cc1occc1C(=O)N1CCC(C(O)c2ccc(F)cc2)CC1 (centres undefined) | ClpP1P2: -5.42%; LiHisRS: 22.22%
* CC(O)c1cn(Cc2cccc(C(F)(F)F)c2)nn1 (centres undefined) | ClpP1P2: -17.53%; LiHisRS: 8.333%
* Cc1ccc(-n2cccn2)cc1S(=O)(=O)N1C[C@@H]2CC[C@H](C1)N(C)C2 | ClpP1P2: -11.58%; LiHisRS: 9.836%
* Cc1ccc(NC(=O)N2CCCC(N(C)C)C2)c(Br)c1 (centres undefined) | ClpP1P2: -8.55%; LiHisRS: 12.05%
* O=C(Cc1ccccc1Cl)Nc1cnn(C2CCOC2)c1 (centres undefined) | ClpP1P2: -8.987%; LiHisRS: 7.317%
* COCCN(CC1CCCN(C2Cc3ccccc3C2)C1)C(=O)CSC (centres undefined) | ClpP1P2: 0.92%; LiHisRS: 8.824%